Test results reported in publication PMC7047322.

Amino acid sequences for entries named in this document (tags omitted).
UniProt P26447: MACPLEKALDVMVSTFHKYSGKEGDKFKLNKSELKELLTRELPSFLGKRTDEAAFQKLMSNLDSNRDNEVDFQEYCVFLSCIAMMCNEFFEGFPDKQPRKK
UniProt P19474: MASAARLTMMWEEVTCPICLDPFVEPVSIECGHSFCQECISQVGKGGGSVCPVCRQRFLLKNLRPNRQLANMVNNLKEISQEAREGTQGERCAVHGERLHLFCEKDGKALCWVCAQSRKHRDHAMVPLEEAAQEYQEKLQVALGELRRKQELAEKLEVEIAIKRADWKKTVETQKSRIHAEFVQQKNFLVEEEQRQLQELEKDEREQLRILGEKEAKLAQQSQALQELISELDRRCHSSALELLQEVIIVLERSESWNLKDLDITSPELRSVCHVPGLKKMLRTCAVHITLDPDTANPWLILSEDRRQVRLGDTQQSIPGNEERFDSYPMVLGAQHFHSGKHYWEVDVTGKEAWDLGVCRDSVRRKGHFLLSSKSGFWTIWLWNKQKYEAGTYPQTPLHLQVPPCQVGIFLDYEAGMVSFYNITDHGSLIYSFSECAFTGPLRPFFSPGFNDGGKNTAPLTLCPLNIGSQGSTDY

Biological target: S100A4 (human (endogenous in LoVo and HCT116)) (UniProt P26447)
Assay: affinity purification with mass spectrometry; endogenous S100A4 precipitated from lysates (IP lysis buffer) of PGCCs with daughter cells with rabbit anti-S100A4 monoclonal antibody (1:50, 4°C overnight) and protein A/G agarose beads; normal rabbit IgG as negative control; co-precipitates analysed by MS/MS (Q Exactive plus)

tripartite motif-containing 21 (TRIM21) (from UniProt P19474 1-475)
binding: binds

These are yes or no findings as the source states them, for the method shown. Binding seen in cells or lysates may run through a third protein. A yes stands for co-enrichment or nearness to the bait. Other partners may have been found.
